In patent US20050070565A1, “Chelerythrine, analogs thereof and their use in the treatment of bipolar disorder and other cognitive disorders” (priority 2003, published 2005):
Entries after “also recorded” stand apart in the source; their conditions may differ. At least one structure is not confirmed: it was looked up by name or label, or the drawing left a doubt.

Legend:
rhesus monkeys = assay: Spatial delayed response task (working memory); type: in vivo, rhesus monkey; conditions: lithium pretreatment 5-7.5 mg/kg p.o.
Excerpt: NE α-1 adrenergic receptors are positively coupled to PKC through a Gq-protein linked to the PI intracellular signaling pathway (FIG. 1). Previous studies have shown that infusion of the α-1 adrenergic receptor agonist, phenylephrine, into the prefrontal cortex impairs working memory in both rats (Arnsten et al., 1999; FIGS. 2, 6 and 10B) and monkeys (Mao et al, 1999). Likewise, systemic injections of cirazoline, an α-1 adrenergic receptor agonist that crosses the blood brain barrier, impairs working memory in monkeys (FIGS. 5 and 10C). Thus, PKC was activated indirectly by infusing phenylephrine into the prefrontal cortex in rats (5 min prior to cognitive testing), or by systemic administration of cirazoline in monkeys (intramuscular injections, 30 min prior to cognitive testing). Monkeys had been previously trained on the spatial delayed response task, the task most commonly used to assess prefrontal cortical function in nonhuman primates. […]
Chelerythrine was administered orally to rhesus monkeys at doses of either […] or 0.3 mg/kg 60 min before cognitive testing, 30 minutes prior to stress exposure (FG7142 0.2-1.0 mg/kg, i.m.). In addition to cognitive testing, monkeys are also assessed for changes in sedation, agitation, aggression, motivation, food intake, and both fine and gross motor abilities. […]

rats = conditions: lithium dose known to suppress phosphotidyl inositol turnover; cited from earlier work

For [Li] [lithium, reference compound], the “effect on deficits induced by systemic cirazoline (FIG. 5)” value (rhesus monkeys) is listed as “reverses; also recorded: can reverse” and the “effect on impairment by alpha-1 agonist infused into prefrontal cortex (FIG. 4)” value (rats) is listed as “reverses”.
